For three substances, binding results are on record in paper PMC8257253.

Sequences of proteins named here, by UniProt entry; tags and fusion partners are left off. Residues count along the entry.
UniProt Q80UG2, residues 24-1893: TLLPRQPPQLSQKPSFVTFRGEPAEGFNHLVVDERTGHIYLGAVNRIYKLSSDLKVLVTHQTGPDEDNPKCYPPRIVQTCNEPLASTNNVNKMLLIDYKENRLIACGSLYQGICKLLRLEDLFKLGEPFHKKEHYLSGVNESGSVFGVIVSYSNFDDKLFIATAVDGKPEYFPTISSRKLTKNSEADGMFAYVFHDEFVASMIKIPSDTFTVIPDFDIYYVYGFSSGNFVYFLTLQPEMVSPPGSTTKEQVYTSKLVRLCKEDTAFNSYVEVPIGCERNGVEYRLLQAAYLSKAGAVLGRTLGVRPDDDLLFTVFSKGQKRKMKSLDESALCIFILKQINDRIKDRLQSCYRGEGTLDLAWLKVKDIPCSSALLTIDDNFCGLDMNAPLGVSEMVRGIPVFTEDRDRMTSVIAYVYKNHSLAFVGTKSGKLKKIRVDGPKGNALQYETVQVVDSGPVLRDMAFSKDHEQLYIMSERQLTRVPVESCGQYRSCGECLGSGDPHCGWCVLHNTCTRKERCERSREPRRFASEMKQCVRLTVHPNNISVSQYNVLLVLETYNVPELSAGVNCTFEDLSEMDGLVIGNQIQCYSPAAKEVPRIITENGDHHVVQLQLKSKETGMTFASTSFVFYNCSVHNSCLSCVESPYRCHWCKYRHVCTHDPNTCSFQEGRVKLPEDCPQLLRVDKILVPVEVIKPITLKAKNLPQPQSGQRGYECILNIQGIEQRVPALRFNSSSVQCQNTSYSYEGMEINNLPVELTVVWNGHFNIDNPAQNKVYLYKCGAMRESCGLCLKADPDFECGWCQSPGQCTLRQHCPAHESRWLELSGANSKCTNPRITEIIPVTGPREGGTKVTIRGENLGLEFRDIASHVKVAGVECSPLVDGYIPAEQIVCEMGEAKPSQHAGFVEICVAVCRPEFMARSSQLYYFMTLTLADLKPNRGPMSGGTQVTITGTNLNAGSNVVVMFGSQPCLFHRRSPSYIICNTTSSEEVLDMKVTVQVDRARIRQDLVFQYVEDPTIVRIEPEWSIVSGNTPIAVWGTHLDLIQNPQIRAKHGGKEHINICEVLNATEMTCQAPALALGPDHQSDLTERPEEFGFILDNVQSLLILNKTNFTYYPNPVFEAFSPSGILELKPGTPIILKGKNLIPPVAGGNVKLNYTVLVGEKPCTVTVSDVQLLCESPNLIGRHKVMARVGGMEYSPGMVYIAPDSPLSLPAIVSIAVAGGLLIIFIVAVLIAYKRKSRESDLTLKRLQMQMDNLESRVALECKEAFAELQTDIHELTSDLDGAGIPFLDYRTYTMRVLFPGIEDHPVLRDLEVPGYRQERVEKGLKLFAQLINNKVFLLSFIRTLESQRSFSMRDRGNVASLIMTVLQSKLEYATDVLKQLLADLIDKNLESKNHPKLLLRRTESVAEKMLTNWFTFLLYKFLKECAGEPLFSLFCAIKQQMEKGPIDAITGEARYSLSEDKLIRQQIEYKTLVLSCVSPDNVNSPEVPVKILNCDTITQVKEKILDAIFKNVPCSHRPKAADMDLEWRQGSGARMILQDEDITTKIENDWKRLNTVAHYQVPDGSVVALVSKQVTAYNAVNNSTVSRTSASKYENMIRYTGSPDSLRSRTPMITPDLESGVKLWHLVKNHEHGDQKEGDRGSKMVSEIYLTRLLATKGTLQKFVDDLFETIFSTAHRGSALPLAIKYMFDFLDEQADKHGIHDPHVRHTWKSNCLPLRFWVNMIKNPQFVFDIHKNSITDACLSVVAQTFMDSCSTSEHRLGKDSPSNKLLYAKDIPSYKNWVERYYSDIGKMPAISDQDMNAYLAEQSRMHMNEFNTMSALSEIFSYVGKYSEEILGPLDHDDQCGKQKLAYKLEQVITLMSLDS
UniProt P15508: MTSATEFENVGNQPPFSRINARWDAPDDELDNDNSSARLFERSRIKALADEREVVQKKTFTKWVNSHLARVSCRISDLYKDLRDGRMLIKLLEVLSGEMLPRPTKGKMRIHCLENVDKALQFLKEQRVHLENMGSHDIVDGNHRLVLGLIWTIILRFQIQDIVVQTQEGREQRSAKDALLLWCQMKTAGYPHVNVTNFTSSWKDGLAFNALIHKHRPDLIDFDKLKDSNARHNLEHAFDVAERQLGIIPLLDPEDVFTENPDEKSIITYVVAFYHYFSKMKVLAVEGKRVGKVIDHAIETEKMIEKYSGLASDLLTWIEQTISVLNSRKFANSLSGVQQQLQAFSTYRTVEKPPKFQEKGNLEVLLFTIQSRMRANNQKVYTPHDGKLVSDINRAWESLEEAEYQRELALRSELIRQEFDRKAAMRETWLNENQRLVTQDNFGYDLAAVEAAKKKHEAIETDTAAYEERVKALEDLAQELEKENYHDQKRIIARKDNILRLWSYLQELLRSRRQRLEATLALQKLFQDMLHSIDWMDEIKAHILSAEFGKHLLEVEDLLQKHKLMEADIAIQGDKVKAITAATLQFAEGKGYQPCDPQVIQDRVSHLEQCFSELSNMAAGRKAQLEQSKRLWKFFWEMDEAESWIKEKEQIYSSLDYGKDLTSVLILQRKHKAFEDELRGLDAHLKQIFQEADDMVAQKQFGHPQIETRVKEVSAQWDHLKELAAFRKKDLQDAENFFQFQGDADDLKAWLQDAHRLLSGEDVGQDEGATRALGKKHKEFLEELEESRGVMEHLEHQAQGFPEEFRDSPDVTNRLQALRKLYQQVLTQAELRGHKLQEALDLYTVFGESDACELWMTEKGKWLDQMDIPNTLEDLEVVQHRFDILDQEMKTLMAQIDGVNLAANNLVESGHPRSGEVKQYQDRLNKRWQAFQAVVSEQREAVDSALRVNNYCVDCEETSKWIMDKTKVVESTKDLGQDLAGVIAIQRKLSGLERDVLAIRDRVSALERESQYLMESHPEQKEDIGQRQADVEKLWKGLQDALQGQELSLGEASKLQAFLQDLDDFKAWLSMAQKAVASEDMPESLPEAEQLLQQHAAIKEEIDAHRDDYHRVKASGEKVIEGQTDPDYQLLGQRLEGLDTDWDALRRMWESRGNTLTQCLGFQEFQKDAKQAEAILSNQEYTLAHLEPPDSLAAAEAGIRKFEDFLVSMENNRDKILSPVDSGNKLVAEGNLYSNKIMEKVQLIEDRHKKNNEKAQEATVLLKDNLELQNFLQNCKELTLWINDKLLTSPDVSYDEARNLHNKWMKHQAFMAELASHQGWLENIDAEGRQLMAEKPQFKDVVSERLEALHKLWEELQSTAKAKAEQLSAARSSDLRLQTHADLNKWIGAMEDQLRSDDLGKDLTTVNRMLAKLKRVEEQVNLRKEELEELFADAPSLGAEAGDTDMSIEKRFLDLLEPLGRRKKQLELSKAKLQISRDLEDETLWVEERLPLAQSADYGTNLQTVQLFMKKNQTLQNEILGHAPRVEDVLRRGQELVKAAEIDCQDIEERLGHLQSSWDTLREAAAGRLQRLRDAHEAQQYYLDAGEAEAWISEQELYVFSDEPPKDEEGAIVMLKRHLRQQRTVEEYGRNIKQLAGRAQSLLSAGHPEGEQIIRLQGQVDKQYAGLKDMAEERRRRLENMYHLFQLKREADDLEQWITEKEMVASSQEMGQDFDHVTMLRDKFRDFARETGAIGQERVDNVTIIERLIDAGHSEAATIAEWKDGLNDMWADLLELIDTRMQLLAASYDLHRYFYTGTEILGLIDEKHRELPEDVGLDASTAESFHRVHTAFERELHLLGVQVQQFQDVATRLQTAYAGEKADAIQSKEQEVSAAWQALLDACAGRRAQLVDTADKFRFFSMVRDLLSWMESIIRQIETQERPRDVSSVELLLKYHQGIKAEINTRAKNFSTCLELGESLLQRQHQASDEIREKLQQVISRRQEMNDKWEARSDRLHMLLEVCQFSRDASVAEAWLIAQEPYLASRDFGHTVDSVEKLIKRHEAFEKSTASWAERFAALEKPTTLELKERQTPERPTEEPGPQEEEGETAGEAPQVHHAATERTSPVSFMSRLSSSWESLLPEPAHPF
UniProt Q02357: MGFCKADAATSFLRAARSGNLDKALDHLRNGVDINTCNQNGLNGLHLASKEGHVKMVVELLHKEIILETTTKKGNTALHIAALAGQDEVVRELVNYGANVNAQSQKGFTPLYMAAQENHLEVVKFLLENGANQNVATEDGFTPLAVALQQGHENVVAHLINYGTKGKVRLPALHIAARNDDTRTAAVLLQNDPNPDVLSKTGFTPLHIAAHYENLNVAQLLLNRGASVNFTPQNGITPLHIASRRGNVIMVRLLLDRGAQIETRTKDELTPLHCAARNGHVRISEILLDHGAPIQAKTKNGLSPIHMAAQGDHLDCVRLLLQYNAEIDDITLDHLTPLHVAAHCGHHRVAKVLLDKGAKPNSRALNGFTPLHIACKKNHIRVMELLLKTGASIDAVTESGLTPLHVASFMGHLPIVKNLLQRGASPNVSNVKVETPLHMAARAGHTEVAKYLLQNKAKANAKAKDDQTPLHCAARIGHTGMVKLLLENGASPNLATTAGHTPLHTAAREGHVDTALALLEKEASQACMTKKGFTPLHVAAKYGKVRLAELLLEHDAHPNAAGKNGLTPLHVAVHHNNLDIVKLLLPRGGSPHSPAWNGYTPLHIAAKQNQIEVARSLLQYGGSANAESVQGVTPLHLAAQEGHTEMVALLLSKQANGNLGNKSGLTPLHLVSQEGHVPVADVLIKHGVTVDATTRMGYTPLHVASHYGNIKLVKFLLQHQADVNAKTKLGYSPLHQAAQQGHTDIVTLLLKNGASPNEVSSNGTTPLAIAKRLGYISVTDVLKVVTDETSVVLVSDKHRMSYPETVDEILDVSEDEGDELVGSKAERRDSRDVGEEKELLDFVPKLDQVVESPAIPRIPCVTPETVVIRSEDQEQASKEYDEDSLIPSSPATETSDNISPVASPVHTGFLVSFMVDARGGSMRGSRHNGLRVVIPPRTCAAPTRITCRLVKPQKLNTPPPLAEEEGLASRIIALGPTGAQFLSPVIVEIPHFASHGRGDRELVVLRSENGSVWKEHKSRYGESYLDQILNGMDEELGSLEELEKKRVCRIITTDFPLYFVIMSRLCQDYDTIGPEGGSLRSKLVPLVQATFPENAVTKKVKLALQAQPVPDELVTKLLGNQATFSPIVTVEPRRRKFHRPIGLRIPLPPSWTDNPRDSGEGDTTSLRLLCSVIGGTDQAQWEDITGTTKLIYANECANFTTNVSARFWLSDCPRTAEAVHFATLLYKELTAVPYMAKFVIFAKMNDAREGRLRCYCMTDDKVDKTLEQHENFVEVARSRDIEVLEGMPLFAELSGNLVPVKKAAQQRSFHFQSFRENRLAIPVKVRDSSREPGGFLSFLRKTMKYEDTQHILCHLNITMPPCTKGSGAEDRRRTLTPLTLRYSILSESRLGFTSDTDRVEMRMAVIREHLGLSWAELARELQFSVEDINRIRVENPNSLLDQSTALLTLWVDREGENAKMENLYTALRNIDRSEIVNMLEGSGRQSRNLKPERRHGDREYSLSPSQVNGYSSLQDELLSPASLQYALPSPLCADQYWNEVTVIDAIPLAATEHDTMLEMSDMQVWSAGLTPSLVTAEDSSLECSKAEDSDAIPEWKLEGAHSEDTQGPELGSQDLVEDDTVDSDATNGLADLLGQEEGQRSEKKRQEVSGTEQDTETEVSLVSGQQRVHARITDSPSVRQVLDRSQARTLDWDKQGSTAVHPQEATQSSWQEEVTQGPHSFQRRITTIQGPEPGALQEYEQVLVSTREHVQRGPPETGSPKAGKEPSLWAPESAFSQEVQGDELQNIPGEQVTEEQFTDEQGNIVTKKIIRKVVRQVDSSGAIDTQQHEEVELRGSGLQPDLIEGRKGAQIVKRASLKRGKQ

Holding throughout (assay): co-IP; mouse brain homogenate solubilised with 1% Triton X-100; lysate 1 mg/ml in 1% Triton X-100, 20 mM Tris-HCl pH 8.0, 10 mM EDTA, 150 mM NaCl, 10 mM NaN3; antibodies overnight at 4 °C, Protein A or G agarose, seven washes, immunoblot; IgG as control
For orientation: Immunoblotting shows a protein as a band on a membrane.

For assay [1], the target named is PlexinA4 (mouse (endogenous in mouse brain)) (UniProt Q80UG2).
Assay [2] has as its target NrCAM (mouse (endogenous in mouse brain)) (UniProt Q810U4).
Assay [3] concerns the target Neuropilin-1 (mouse (endogenous in mouse brain)) (UniProt P97333).
For assay [4], the target named is β1 spectrin (mouse (endogenous in mouse brain)) (UniProt P15508).
In assay [5] the target is Ankyrin-R (mouse (endogenous in mouse brain)) (UniProt Q02357).

No constants are given. Whether binding was seen depends on the method and setting. Binding seen in cells or lysates may run through a third protein. Some results given as binding are weak or reduced against the parent protein; the word gives no strength.

For Ankyrin-R (from UniProt Q02357 1-1862), the binding result in assay [1], in assay [2], in assay [3] and in assay [4] was “binds” in each case.
With NrCAM (from UniProt Q810U4 30-1256), the binding result in assay [5] is recorded as “binds”.
In the case of “β1 spectrin (from UniProt P15508 1-2128)”, the binding entry in assay [5] is listed as “binds”.
